# According to patent US20020150901A1, “Novel nucleic acids, polypeptides, methods of making, and uses thereof” (priority 2000, published 2002):
# At least one structure is not confirmed: it was looked up by name or label, or the drawing left a doubt.
# Biological target: T1, human CysLT1 receptor (Homo sapiens, UniProt Q9Y271)
# T1 construct: expressed in transfected cells; host or cells: COS-7
# T1 sequence (Q9Y271 1-337): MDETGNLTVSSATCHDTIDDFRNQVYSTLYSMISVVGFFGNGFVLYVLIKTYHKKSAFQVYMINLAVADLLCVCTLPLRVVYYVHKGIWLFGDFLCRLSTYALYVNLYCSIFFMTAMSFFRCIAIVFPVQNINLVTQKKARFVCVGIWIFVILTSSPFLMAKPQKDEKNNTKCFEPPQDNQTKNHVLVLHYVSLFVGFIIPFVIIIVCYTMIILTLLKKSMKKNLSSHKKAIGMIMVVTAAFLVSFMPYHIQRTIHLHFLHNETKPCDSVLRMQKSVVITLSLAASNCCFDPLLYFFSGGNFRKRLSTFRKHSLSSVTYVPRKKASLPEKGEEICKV
# Experiment: Aequorin bioluminescence assay of intracellular calcium release, COS-7 cells expressing human CysLT1
# Type: cell-based
# Conditions: 200 nM antagonist injected 10 seconds before 200 nM LTC4 or LTD4
structure (smiles),measurement,value
"CC(C)(O)c1ccccc1CC[C@@H](SCC1(CC(=O)O)CC1)c1cccc(/C=C/c2ccc3ccc(Cl)cc3n2)c1 [Singulair, montelukast]",block of LTC4 or LTD4 induced receptor activation by antagonist,effectively blocked
